From PubChem BioAssay AID200 (DTP/NCI, 2004)
The list shows only some results of the screen, not a fair sample: it is rich in T/C values a quarter to a half above the control, in often repeated tests (any T/C) and in doses without a T/C. Other doses and runs of a compound stand elsewhere. T/C gives the treated animals as a percentage of the vehicle group. Some entries give survivors of the animals treated and no T/C: the source holds a T/C of zero for them, seemingly a mark for toxic or unscored doses. Some survivor counts are full or nearly so, which does not show that the dose was tolerated: the source hardly ever lists a survival T/C far under the control, and the zero likely stands for such cases as well. Counts of survivors are from the toxicity check (mostly the fifth day) where no day follows; animals may have died later. Schedules are NCI's codes, read here as Q, the interval in days (D) or hours (H), X, the number of doses. Some doses were run more than once; the results are listed from low to high. For survival time, the PubChem record calls one and a half times the control and up active, and a quarter to a half above the control has no call in these data; cut-offs in other NCI protocols can differ. Some T/C values carry the count of animals alive at the toxicity check (mostly the fifth day); without a count, all were alive then.

Tested on: B6C3F1 mice, B16 melanoma ip, median survival T/C
Experiment: NCI In Vivo Anticancer Drug Screen. Data for tumor model B16 Melanoma (intraperitoneal) in B6C3F1 mice
Conditions: T/C endpoint: median survival time, higher T/C = longer survival
Procedure, shortened: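 Antitumor effect was judged in mice with transplanted tumors by dividing the treated group's survival measure by that of vehicle controls.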

CC[C@@]1(O)C[C@H](OC2CC(N(C)C)C(OC3CC(O)C(O[C@@H]4O[C@@H](C)C(=O)C=C4N)C(C)O3)C(C)O2)c2c(cc3c(c2O)C(=O)c2c(O)ccc(O)c2C3=O)[C@H]1C(=O)OC (some centres undefined)
T/C (dose: 0.38 mg/kg/injection, schedule: Q01DX009 (ip), vehicle: saline): 134 % of control
T/C (dose: 1.6 mg/kg/injection, schedule: Q01DX001 (ip), vehicle: suspension in saline): 133 % of control

CC(=O)NO
survivor count (dose: 800.0 mg/kg/injection, schedule: Q01DX009 (ip), vehicle: water): 10 of 10

CC(C)CC(C(=O)O)N(C)C(=O)OC(C)(C)C (centres undefined)
survivor count (dose: 400.0 mg/kg/injection, schedule: Q01DX009 (ip), vehicle: Klucel (hydroxypropylcellulose) (HPC)): 10 of 10

CC[C@@H](C)[C@@H]1NC(=O)C(NC(=O)C(CC(C)C)N(C)C(=O)C2CCCN2C(=O)C(C)O)C(C)OC(=O)C(Cc2ccc(OC)cc2)N(C)C(=O)C2CCCN2C(=O)C(CC(C)C)NC(=O)C(C)C(=O)C(C(C)C)OC(=O)C[C@H]1O (some centres undefined)
T/C (dose: 20.0 micrograms/kg/injection, schedule: Q01DX009 (ip), vehicle: other): 141 % of control
T/C (dose: 40.0 micrograms/kg/injection, schedule: Q01DX005 (ip), vehicle: other): 125 and 130 % of control
T/C (dose: 40.0 micrograms/kg/injection, schedule: Q01DX009 (ip), vehicle: distilled water + alcohol): 145 % of control
T/C (dose: 40.0 micrograms/kg/injection, schedule: Q01DX009 (ip), vehicle: other): 137 % of control
T/C (dose: 47.0 micrograms/kg/injection, schedule: Q01DX009 (ip), vehicle: other): 145 % of control
T/C (dose: 47.0 micrograms/kg/injection, schedule: Q01DX009 (ip), vehicle: saline): 143 % of control
T/C (dose: 71.0 micrograms/kg/injection, schedule: Q01DX009 (ip), vehicle: saline): 143 % of control
T/C (dose: 80.0 micrograms/kg/injection, schedule: Q01DX005 (ip), vehicle: other): 140 % of control
T/C (dose: 80.0 micrograms/kg/injection, schedule: Q01DX009 (ip), vehicle: distilled water + alcohol): 147 % of control [9 of 10 alive]
T/C (dose: 80.0 micrograms/kg/injection, schedule: Q01DX009 (ip), vehicle: other): 145 % of control
T/C (dose: 80.0 micrograms/kg/injection, schedule: Q03HX008 (ip), vehicle: saline): 135 % of control [9 of 10 alive]
T/C (dose: 106.0 micrograms/kg/injection, schedule: Q01DX009 (ip), vehicle: saline): 149 % of control
T/C (dose: 160.0 micrograms/kg/injection, schedule: Q01DX001 (ip), vehicle: other): 131 % of control
T/C (dose: 160.0 micrograms/kg/injection, schedule: Q01DX005 (ip), vehicle: other): 128 and 137 % of control [9 of 10 alive]
T/C (dose: 160.0 micrograms/kg/injection, schedule: Q01DX009 (ip), vehicle: other): 144 and 149 % of control
survivor count (dose: 160.0 micrograms/kg/injection, schedule: Q03HX008 (ip), vehicle: saline): 6 of 10
survivor count (dose: 240.0 micrograms/kg/injection, schedule: Q01DX009 (ip), vehicle: other): 9 of 10
survivor count (dose: 240.0 micrograms/kg/injection, schedule: Q01DX009 (ip), vehicle: saline): 9 of 10
T/C (dose: 320.0 micrograms/kg/injection, schedule: Q01DX001 (ip), vehicle: other): 125 and 130 % of control
T/C (dose: 320.0 micrograms/kg/injection, schedule: Q01DX001 (ip), vehicle: saline): 125 % of control
survivor count (dose: 320.0 micrograms/kg/injection, schedule: Q01DX005 (ip), vehicle: other): 9 of 10
survivor count (dose: 320.0 micrograms/kg/injection, schedule: Q01DX009 (ip), vehicle: other): 3 of 10 and 9 of 10
survivor count (dose: 320.0 micrograms/kg/injection, schedule: Q03HX008 (ip), vehicle: saline): 0 of 10
T/C (dose: 640.0 micrograms/kg/injection, schedule: Q01DX001 (ip), vehicle: other): 134 % of control
T/C (dose: 640.0 micrograms/kg/injection, schedule: Q01DX001 (ip), vehicle: saline): 132 % of control
survivor count (dose: 640.0 micrograms/kg/injection, schedule: Q01DX005 (ip), vehicle: other): 1 of 10 and 7 of 10
survivor count (dose: 640.0 micrograms/kg/injection, schedule: Q01DX005 (iv), vehicle: other): 7 of 10 and 8 of 10
survivor count (dose: 640.0 micrograms/kg/injection, schedule: Q01DX005 (sc), vehicle: other): 4 of 10 and 10 of 10
survivor count (dose: 640.0 micrograms/kg/injection, schedule: Q01DX009 (ip), vehicle: other): 5 of 10
survivor count (dose: 640.0 micrograms/kg/injection, schedule: Q03HX008 (ip), vehicle: saline): 0 of 10
T/C (dose: 1280.0 micrograms/kg/injection, schedule: Q01DX001 (ip), vehicle: other): 140 % of control [8 of 10 alive]
survivor count (dose: 1280.0 micrograms/kg/injection, schedule: Q01DX005 (ip), vehicle: other): 0 of 10
survivor count (dose: 1280.0 micrograms/kg/injection, schedule: Q01DX005 (iv), vehicle: other): 0 of 10
survivor count (dose: 1280.0 micrograms/kg/injection, schedule: Q01DX005 (sc), vehicle: other): 2 of 10
survivor count (dose: 1280.0 micrograms/kg/injection, schedule: Q01DX009 (ip), vehicle: other): 0 of 10
survivor count (dose: 2560.0 micrograms/kg/injection, schedule: Q01DX001 (ip), vehicle: other): 5 of 10 and 6 of 10
survivor count (dose: 2560.0 micrograms/kg/injection, schedule: Q01DX001 (ip), vehicle: saline): 1 of 10
survivor count (dose: 2560.0 micrograms/kg/injection, schedule: Q01DX001 (iv), vehicle: other): 0 of 10 and 2 of 10
survivor count (dose: 2560.0 micrograms/kg/injection, schedule: Q01DX001 (sc), vehicle: other): 6 of 10
survivor count (dose: 2560.0 micrograms/kg/injection, schedule: Q01DX005 (sc), vehicle: other): 0 of 10
survivor count (dose: 5120.0 micrograms/kg/injection, schedule: Q01DX001 (ip), vehicle: other): 0 of 10 and 1 of 10
survivor count (dose: 5120.0 micrograms/kg/injection, schedule: Q01DX001 (ip), vehicle: saline): 0 of 10
survivor count (dose: 5120.0 micrograms/kg/injection, schedule: Q01DX001 (iv), vehicle: other): 0 of 10
survivor count (dose: 5120.0 micrograms/kg/injection, schedule: Q01DX001 (sc), vehicle: other): 0 of 10 and 1 of 10
survivor count (dose: 5120.0 micrograms/kg/injection, schedule: Q01DX005 (oral), vehicle: other): 0 of 10
survivor count (dose: 10240.0 micrograms/kg/injection, schedule: Q01DX001 (ip), vehicle: other): 0 of 10
survivor count (dose: 10240.0 micrograms/kg/injection, schedule: Q01DX001 (iv), vehicle: other): 0 of 10
survivor count (dose: 10240.0 micrograms/kg/injection, schedule: Q01DX001 (oral), vehicle: other): 1 of 10
survivor count (dose: 20480.0 micrograms/kg/injection, schedule: Q01DX001 (oral), vehicle: other): 0 of 10
survivor count (dose: 40960.0 micrograms/kg/injection, schedule: Q01DX001 (oral), vehicle: other): 0 of 10

CO[C@@]12[C@@H]3N[C@@H]3CN1C1=C(C(=O)C(NCC3CCCO3)=C(C)C1=O)[C@@H]2COC(N)=O (some centres undefined)
T/C (dose: 1.5 mg/kg/injection, schedule: Q04DX003 (ip), vehicle: distilled water + Tween-80): 146 % of control
survivor count (dose: 48.0 mg/kg/injection, schedule: Q04DX003 (ip), vehicle: distilled water + Tween-80): 8 of 10

COc1cccc2c1C(=O)c1c(O)c3c(c(O)c1C2=O)CC(O)(C(=O)CO)CC3OC1CC(N)C(O)C(C)O1 (centres undefined)
T/C (dose: 32.0 mg/kg/injection, schedule: Q01DX001 (ip), vehicle: other): 126 % of control
T/C (dose: 53.3 mg/kg/injection, schedule: Q01DX001 (ip), vehicle: other): 134 % of control
survivor count (dose: 72.0 mg/kg/injection, schedule: Q01DX009 (ip), vehicle: water): 9 of 10
survivor count (dose: 144.0 mg/kg/injection, schedule: Q01DX009 (ip), vehicle: water): 2 of 10

O=c1[nH]cnc2[nH]ncc12
survivor count (dose: 200.0 mg/kg/injection, schedule: Q01DX009 (ip), vehicle: suspension in saline): 8 of 10
survivor count (dose: 400.0 mg/kg/injection, schedule: Q01DX009 (ip), vehicle: suspension in saline): 3 of 10

Clc1ccc(C[P+](c2ccccc2)(c2ccccc2)c2ccccc2)cc1Cl
survivor count (dose: 25.0 mg/kg/injection, schedule: Q01DX009 (ip), vehicle: Klucel (hydroxypropylcellulose) (HPC)): 0 of 10
survivor count (dose: 50.0 mg/kg/injection, schedule: Q01DX009 (ip), vehicle: Klucel (hydroxypropylcellulose) (HPC)): 0 of 10
